Source: PMC5802629
No constants are given. Whether binding was seen depends on the method and setting. Binding seen in cells or lysates may run through a third protein. Some entries that bind do so weakly or less than the wild type.

Chains of the proteins cited; added tags and fusions are not shown.
UniProt P21554: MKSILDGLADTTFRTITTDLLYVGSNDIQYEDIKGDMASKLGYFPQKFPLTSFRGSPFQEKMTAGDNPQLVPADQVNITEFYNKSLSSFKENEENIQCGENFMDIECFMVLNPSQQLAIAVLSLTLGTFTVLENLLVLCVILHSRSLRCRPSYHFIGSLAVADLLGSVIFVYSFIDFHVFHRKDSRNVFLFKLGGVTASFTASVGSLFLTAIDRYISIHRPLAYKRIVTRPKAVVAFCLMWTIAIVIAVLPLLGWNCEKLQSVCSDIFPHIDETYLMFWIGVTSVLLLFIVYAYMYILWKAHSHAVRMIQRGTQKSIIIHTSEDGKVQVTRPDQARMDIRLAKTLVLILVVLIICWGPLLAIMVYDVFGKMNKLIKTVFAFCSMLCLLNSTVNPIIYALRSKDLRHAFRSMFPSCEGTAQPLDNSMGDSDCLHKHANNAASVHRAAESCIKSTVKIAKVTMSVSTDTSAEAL
UniProt P35372: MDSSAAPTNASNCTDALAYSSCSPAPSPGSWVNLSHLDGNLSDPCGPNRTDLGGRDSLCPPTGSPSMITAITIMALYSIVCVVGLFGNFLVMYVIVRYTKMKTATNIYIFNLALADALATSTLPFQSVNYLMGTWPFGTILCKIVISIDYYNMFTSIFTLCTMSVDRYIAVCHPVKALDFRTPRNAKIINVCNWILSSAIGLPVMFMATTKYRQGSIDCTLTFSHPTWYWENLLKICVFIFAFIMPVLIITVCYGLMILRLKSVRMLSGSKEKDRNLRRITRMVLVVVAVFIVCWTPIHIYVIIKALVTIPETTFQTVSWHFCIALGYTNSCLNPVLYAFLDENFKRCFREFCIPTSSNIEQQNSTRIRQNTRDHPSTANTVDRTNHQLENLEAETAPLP
UniProt P49773: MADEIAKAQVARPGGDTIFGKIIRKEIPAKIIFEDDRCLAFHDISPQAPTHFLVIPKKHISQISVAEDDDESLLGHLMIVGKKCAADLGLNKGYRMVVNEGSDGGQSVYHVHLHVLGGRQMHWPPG

How the values were obtained:
[1] = target: cannabinoid type 1 receptor (human (endogenous in postmortem prefrontal cortex)) (UniProt P21554); assay: co-IP; solubilized synaptosomal membranes of postmortem human prefrontal cortex (schizophrenic, depressive and control subjects); the GPCR immunoprecipitated with biotinylated IgG to an extracellular sequence, captured by agarose streptavidin; co-precipitated HINT1 and NR1 C1 by western blot
[2] = target: mu-opioid receptor (human (endogenous in postmortem prefrontal cortex)) (UniProt P35372); assay: as above

histidine triad nucleotide-binding protein 1 (from UniProt P49773 1-126)
binding [1]: binds
binding [2]: binds
